PubChem BioAssay AID1224830, NIAID, 2016
Purpose: 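Regulators of TLR4 signalling towards TNF-alpha in macrophage-like cells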 (primary screen). System: human THP-1 monocytic leukaemia cells, TNF dual-luciferase reporter clone, PMA-differentiated to macrophage-like cells. Reagents: siRNA pool against human genes, 50 nM. Time to read-out: LPS for 4 h, given about 3 days after siRNA transfection. Treatment: bacterial LPS (TLR4 ligand), 10 ng/ml. Read-out: 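TNF firefly reporter luminescence divided by renilla, normalised to the plate median, then turned into a robust z-score for each replicate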. Direction: TNF reporter robust z-score: higher = stronger TNF reporter response to LPS. Rule for the call: 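Each well counts as active if its z-score is over 2.8 or under -1.5; controls are left without a call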.
In all, the deposit lists about 18,000 reagents; this is an unselected part. About 2,900 of them (16%) were called active. 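Calls are made per well; low scores hint the gene aids the LPS response, high scores that it dampens it.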 Repeated entries: four replicate wells of each siRNA pool. No sequences are given here.

gene | TNF reporter robust z-score | Call
DHX57 (DExH-box helicase 57) | -0.51 | inactive
DHX57 (DExH-box helicase 57) | -0.73 | inactive
DHX57 (DExH-box helicase 57) | -0.87 | inactive
DHX57 (DExH-box helicase 57) | -0.27 | inactive
SERPINB1 (serpin family B member 1) | -1.43 | inactive
SERPINB1 (serpin family B member 1) | -1.19 | inactive
SERPINB1 (serpin family B member 1) | -1.45 | inactive
SERPINB1 (serpin family B member 1) | -1.38 | inactive
FBXL14 (F-box and leucine rich repeat protein 14) | 1 | inactive
FBXL14 (F-box and leucine rich repeat protein 14) | 2.7 | inactive
FBXL14 (F-box and leucine rich repeat protein 14) | 3.12 | active
FBXL14 (F-box and leucine rich repeat protein 14) | -2.04 | active
CEMP1 (cementum protein 1) | 2.01 | inactive
CEMP1 (cementum protein 1) | 2.26 | inactive
CEMP1 (cementum protein 1) | 0.16 | inactive
CEMP1 (cementum protein 1) | 1.82 | inactive
TLE3 (TLE family member 3, transcriptional corepressor) | -1.32 | inactive
TLE3 (TLE family member 3, transcriptional corepressor) | -0.45 | inactive
TLE3 (TLE family member 3, transcriptional corepressor) | 10.6 | active
TLE3 (TLE family member 3, transcriptional corepressor) | 0.06 | inactive
TBX1 (T-box transcription factor 1) | -1.16 | inactive
TBX1 (T-box transcription factor 1) | -0.52 | inactive
TBX1 (T-box transcription factor 1) | -0.03 | inactive
TBX1 (T-box transcription factor 1) | 2.26 | inactive
OR6C4 (olfactory receptor family 6 subfamily C member 4) | -0.67 | inactive
OR6C4 (olfactory receptor family 6 subfamily C member 4) | -0.31 | inactive
OR6C4 (olfactory receptor family 6 subfamily C member 4) | -0.77 | inactive
OR6C4 (olfactory receptor family 6 subfamily C member 4) | -0.38 | inactive
MPZ (myelin protein zero) | 0.3 | inactive
MPZ (myelin protein zero) | -0.03 | inactive
MPZ (myelin protein zero) | -0.57 | inactive
MPZ (myelin protein zero) | 0.68 | inactive
ITGA11 (integrin subunit alpha 11) | -0.59 | inactive
ITGA11 (integrin subunit alpha 11) | -0.35 | inactive
ITGA11 (integrin subunit alpha 11) | -0.74 | inactive
ITGA11 (integrin subunit alpha 11) | 0.2 | inactive
ARSL (arylsulfatase L) | -0.85 | inactive
ARSL (arylsulfatase L) | 0.2 | inactive
ARSL (arylsulfatase L) | -0.63 | inactive
ARSL (arylsulfatase L) | 0.81 | inactive
SIRPA (signal regulatory protein alpha) | 0.07 | inactive
SIRPA (signal regulatory protein alpha) | -0.57 | inactive
SIRPA (signal regulatory protein alpha) | -0.08 | inactive
SIRPA (signal regulatory protein alpha) | -0.06 | inactive
SH3KBP1 (SH3 domain containing kinase binding protein 1) | -0.19 | inactive
SH3KBP1 (SH3 domain containing kinase binding protein 1) | 0.51 | inactive
SH3KBP1 (SH3 domain containing kinase binding protein 1) | -1.26 | inactive
SH3KBP1 (SH3 domain containing kinase binding protein 1) | -0.91 | inactive
NDEL1 (nudE neurodevelopment protein 1 like 1) | 3.41 | active
NDEL1 (nudE neurodevelopment protein 1 like 1) | 1.16 | inactive
NDEL1 (nudE neurodevelopment protein 1 like 1) | -0.26 | inactive
NDEL1 (nudE neurodevelopment protein 1 like 1) | 0.27 | inactive
RPUSD1 (RNA pseudouridine synthase domain containing 1) | 2.71 | inactive
RPUSD1 (RNA pseudouridine synthase domain containing 1) | 1.81 | inactive
RPUSD1 (RNA pseudouridine synthase domain containing 1) | 0.73 | inactive
RPUSD1 (RNA pseudouridine synthase domain containing 1) | 1.41 | inactive
METTL4 (methyltransferase 4, N6-adenosine) | 0.93 | inactive
METTL4 (methyltransferase 4, N6-adenosine) | 0.79 | inactive
METTL4 (methyltransferase 4, N6-adenosine) | -0.89 | inactive
METTL4 (methyltransferase 4, N6-adenosine) | -0.68 | inactive
PISD (phosphatidylserine decarboxylase) | -0.7 | inactive
PISD (phosphatidylserine decarboxylase) | -0.43 | inactive
PISD (phosphatidylserine decarboxylase) | -0.28 | inactive
HSCB (HscB mitochondrial iron-sulfur cluster cochaperone) | 0.73 | inactive
HSCB (HscB mitochondrial iron-sulfur cluster cochaperone) | 1.01 | inactive
HSCB (HscB mitochondrial iron-sulfur cluster cochaperone) | -0.41 | inactive
HSCB (HscB mitochondrial iron-sulfur cluster cochaperone) | 0.94 | inactive
LGI4 (leucine rich repeat LGI family member 4) | 0.26 | inactive
LGI4 (leucine rich repeat LGI family member 4) | -0.96 | inactive
LGI4 (leucine rich repeat LGI family member 4) | -0.21 | inactive
LGI4 (leucine rich repeat LGI family member 4) | -0.52 | inactive
GPRASP2 (G protein-coupled receptor associated sorting protein 2) | 0.25 | inactive
GPRASP2 (G protein-coupled receptor associated sorting protein 2) | 1 | inactive
GPRASP2 (G protein-coupled receptor associated sorting protein 2) | -0.34 | inactive
GPRASP2 (G protein-coupled receptor associated sorting protein 2) | 0.45 | inactive
GFM2 (GTP dependent ribosome recycling factor mitochondrial GFM2) | -0.49 | inactive
GFM2 (GTP dependent ribosome recycling factor mitochondrial GFM2) | 0.17 | inactive
GFM2 (GTP dependent ribosome recycling factor mitochondrial GFM2) | -0.52 | inactive
GFM2 (GTP dependent ribosome recycling factor mitochondrial GFM2) | -0.45 | inactive
SLC35A5 | 0 | inactive
SLC35A5 | -1.66 | active
SLC35A5 | 0.96 | inactive
SLC35A5 | 1.4 | inactive
AMIGO3 (adhesion molecule with Ig like domain 3) | -0.36 | inactive
AMIGO3 (adhesion molecule with Ig like domain 3) | 0.19 | inactive
AMIGO3 (adhesion molecule with Ig like domain 3) | 0.05 | inactive
AMIGO3 (adhesion molecule with Ig like domain 3) | 0.42 | inactive
LPL (lipoprotein lipase) | -0.83 | inactive
LPL (lipoprotein lipase) | -0.65 | inactive
LPL (lipoprotein lipase) | -0.01 | inactive
LPL (lipoprotein lipase) | 0.92 | inactive
DEFB115 (defensin beta 115) | 1.21 | inactive
DEFB115 (defensin beta 115) | 1.77 | inactive
DEFB115 (defensin beta 115) | 1.67 | inactive
DEFB115 (defensin beta 115) | 0.55 | inactive
CUL4B (cullin 4B) | -0.3 | inactive
CUL4B (cullin 4B) | -0.41 | inactive
CUL4B (cullin 4B) | -0.36 | inactive
CUL4B (cullin 4B) | 0.24 | inactive
ATOH7 (atonal bHLH transcription factor 7) | -0.68 | inactive
ATOH7 (atonal bHLH transcription factor 7) | -0.2 | inactive
ATOH7 (atonal bHLH transcription factor 7) | -1.16 | inactive
ATOH7 (atonal bHLH transcription factor 7) | 0.86 | inactive
UNC13C (unc-13 homolog C) | 1.46 | inactive
UNC13C (unc-13 homolog C) | 0 | inactive
UNC13C (unc-13 homolog C) | 0.43 | inactive
UNC13C (unc-13 homolog C) | 0.65 | inactive
KRT78 (keratin 78) | -0.98 | inactive
KRT78 (keratin 78) | -0.64 | inactive
KRT78 (keratin 78) | -1.31 | inactive
KRT78 (keratin 78) | -0.73 | inactive
KAZN (kazrin, periplakin interacting protein) | 1.06 | inactive
KAZN (kazrin, periplakin interacting protein) | 0.47 | inactive
KAZN (kazrin, periplakin interacting protein) | 0.97 | inactive
KAZN (kazrin, periplakin interacting protein) | -0.36 | inactive
TUBB4A (tubulin beta 4A class IVa) | -0.77 | inactive
TUBB4A (tubulin beta 4A class IVa) | -0.48 | inactive
TUBB4A (tubulin beta 4A class IVa) | 0.74 | inactive
TUBB4A (tubulin beta 4A class IVa) | 0.23 | inactive
CARHSP1 (calcium regulated heat stable protein 1) | 1.15 | inactive
CARHSP1 (calcium regulated heat stable protein 1) | 0.6 | inactive
CARHSP1 (calcium regulated heat stable protein 1) | 2.46 | inactive
CARHSP1 (calcium regulated heat stable protein 1) | 2.13 | inactive
MYO9B (myosin IXB) | -1.69 | active
MYO9B (myosin IXB) | -0.14 | inactive
MYO9B (myosin IXB) | -0.07 | inactive
MYO9B (myosin IXB) | 0.05 | inactive
TNNC2 (troponin C2, fast skeletal type) | -0.43 | inactive
TNNC2 (troponin C2, fast skeletal type) | 0.74 | inactive
TNNC2 (troponin C2, fast skeletal type) | -0.17 | inactive
TNNC2 (troponin C2, fast skeletal type) | 1.64 | inactive
BTN3A1 (butyrophilin subfamily 3 member A1) | -0.11 | inactive
BTN3A1 (butyrophilin subfamily 3 member A1) | -0.06 | inactive
BTN3A1 (butyrophilin subfamily 3 member A1) | 0.4 | inactive
BTN3A1 (butyrophilin subfamily 3 member A1) | -0.89 | inactive
OXA1L (OXA1L mitochondrial inner membrane insertase) | – | inactive
OXA1L (OXA1L mitochondrial inner membrane insertase) | 1.29 | inactive
OXA1L (OXA1L mitochondrial inner membrane insertase) | 0.75 | inactive
OXA1L (OXA1L mitochondrial inner membrane insertase) | 0.83 | inactive
AFG1L (AFG1 like ATPase) | -1.23 | inactive
AFG1L (AFG1 like ATPase) | -1.05 | inactive
AFG1L (AFG1 like ATPase) | -1.29 | inactive
AFG1L (AFG1 like ATPase) | -0.94 | inactive

Not a retest: an excerpt of the list.
gene | TNF reporter robust z-score | Call
TUBB4A (tubulin beta 4A class IVa) | 0.74 | inactive
TUBB4A (tubulin beta 4A class IVa) | 0.23 | inactive
CARHSP1 (calcium regulated heat stable protein 1) | 1.15 | inactive
CARHSP1 (calcium regulated heat stable protein 1) | 0.6 | inactive
CARHSP1 (calcium regulated heat stable protein 1) | 2.46 | inactive
CARHSP1 (calcium regulated heat stable protein 1) | 2.13 | inactive
MYO9B (myosin IXB) | -1.69 | active
MYO9B (myosin IXB) | -0.14 | inactive
